Laboratory results as given in publication PMC10287950.
No constants are given. Whether binding was seen depends on the method and setting. Binding seen in cells or lysates may run through a third protein. A yes stands for co-enrichment or nearness to the bait. Other partners may have been found.

By UniProt entry, the sequences of proteins in these tests, tags left out.
UniProt Q5JSZ5: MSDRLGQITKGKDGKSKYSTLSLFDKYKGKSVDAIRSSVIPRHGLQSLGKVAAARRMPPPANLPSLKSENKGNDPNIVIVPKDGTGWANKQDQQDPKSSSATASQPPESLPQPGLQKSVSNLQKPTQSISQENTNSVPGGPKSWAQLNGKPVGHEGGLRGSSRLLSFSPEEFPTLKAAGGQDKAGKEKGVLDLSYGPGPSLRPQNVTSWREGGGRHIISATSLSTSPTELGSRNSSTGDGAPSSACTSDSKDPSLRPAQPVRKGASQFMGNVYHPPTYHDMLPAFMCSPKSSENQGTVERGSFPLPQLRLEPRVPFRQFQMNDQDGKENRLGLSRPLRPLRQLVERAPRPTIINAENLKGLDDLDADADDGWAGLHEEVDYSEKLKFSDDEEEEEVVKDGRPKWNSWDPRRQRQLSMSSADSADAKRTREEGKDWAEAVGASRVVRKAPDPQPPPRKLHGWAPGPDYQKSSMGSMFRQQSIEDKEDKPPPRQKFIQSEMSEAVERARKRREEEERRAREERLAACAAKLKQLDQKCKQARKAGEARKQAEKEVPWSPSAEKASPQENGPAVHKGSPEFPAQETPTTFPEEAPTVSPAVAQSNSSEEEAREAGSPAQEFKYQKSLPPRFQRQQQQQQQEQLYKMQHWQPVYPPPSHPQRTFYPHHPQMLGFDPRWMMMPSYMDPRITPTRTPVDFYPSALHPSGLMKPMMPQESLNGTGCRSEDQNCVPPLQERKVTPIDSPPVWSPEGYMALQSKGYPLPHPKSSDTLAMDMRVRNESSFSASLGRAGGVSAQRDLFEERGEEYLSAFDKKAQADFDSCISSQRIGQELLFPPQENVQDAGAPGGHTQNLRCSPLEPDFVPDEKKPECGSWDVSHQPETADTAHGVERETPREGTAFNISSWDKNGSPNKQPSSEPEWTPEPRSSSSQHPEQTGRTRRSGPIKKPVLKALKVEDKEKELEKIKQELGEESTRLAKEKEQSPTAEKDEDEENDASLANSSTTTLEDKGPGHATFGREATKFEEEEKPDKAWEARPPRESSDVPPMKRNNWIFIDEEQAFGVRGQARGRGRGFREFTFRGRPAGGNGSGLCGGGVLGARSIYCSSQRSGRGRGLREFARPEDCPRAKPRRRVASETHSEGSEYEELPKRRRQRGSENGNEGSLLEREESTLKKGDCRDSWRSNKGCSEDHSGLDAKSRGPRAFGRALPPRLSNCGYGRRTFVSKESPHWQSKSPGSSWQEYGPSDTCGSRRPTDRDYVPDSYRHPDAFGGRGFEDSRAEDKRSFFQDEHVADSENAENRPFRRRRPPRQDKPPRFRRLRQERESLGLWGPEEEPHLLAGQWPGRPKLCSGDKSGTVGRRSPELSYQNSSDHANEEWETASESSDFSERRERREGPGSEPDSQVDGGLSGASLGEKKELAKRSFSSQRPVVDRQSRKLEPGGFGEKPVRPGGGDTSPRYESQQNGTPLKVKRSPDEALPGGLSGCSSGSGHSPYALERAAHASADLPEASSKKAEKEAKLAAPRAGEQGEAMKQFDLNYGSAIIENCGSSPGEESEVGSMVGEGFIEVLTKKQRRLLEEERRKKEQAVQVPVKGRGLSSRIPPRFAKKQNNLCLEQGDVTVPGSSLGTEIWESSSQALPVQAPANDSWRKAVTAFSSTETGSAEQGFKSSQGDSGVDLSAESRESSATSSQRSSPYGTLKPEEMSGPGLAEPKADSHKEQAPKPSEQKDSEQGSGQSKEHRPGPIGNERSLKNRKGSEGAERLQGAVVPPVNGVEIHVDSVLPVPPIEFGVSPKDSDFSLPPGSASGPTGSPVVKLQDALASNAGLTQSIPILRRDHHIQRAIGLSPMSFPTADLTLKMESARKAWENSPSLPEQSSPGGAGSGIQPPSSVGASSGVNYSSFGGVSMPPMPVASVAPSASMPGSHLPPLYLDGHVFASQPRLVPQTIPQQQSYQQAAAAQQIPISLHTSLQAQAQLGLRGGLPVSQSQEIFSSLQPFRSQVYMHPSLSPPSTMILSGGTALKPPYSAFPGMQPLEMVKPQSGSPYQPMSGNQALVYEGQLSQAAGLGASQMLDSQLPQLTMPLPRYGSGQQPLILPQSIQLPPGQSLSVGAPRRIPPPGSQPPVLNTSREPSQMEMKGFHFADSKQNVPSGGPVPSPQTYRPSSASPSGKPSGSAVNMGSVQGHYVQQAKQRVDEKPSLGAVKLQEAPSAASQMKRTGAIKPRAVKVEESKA
UniProt P51114: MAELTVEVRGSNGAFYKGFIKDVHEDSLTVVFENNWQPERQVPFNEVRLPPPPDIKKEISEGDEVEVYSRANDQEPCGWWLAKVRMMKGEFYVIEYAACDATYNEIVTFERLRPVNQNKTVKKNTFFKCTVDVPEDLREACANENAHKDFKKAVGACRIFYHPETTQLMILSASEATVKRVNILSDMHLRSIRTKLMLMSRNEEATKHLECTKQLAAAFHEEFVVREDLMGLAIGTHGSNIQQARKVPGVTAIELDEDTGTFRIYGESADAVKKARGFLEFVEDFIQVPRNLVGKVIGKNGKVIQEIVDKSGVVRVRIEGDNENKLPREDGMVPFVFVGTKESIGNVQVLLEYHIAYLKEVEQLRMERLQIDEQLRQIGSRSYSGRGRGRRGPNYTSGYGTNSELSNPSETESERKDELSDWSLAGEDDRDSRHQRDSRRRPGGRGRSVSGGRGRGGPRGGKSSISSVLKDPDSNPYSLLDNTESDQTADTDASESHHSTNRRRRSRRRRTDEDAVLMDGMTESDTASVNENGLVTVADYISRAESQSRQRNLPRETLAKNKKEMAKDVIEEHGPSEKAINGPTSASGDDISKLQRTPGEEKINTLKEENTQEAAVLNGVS
UniProt P78344: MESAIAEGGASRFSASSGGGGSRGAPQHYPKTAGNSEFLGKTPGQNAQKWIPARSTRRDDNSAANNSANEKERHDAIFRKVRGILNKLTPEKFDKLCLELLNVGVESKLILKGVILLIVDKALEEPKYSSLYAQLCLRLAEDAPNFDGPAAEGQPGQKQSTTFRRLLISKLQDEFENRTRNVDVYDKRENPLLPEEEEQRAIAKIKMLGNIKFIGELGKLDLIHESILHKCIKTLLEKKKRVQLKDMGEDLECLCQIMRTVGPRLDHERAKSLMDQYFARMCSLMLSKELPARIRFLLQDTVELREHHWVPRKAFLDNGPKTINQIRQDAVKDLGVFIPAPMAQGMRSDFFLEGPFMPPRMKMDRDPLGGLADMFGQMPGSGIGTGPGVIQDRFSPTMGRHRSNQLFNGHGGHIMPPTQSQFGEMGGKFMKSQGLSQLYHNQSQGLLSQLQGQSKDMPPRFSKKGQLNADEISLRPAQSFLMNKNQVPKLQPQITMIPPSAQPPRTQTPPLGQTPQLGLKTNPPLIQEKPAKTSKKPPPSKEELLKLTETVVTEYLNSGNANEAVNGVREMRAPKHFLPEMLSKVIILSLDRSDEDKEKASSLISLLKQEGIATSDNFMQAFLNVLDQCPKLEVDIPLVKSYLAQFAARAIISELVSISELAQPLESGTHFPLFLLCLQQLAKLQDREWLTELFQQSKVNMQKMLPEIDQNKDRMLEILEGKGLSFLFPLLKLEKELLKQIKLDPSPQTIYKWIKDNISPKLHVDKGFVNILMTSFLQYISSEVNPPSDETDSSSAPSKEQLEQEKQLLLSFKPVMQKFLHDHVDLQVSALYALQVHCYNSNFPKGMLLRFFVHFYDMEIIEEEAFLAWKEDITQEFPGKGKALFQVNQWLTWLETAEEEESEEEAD

Target: Proline-Rich Coiled-coil 2B (PRRC2B), endogenous (human (endogenous in HEK293T)) (UniProt Q5JSZ5)
Assay: affinity purification with mass spectrometry; IP of endogenous PRRC2B from HEK293T lysate with rabbit anti-PRRC2B antibody and protein A Dynabeads, without RNase T1; LC-MS, SAINT probability against pre-immune IgG IPs; lysis buffer 50 mM HEPES pH 7.5, 150 mM KCl, 2 mM EDTA, 0.1% NP-40

binding	Substance
binds	3' UTR-binding protein FXR1 (from UniProt P51114 1-621)
binds	eukaryotic translation initiation factor 4G2 (eIF4G2) (from UniProt P78344 1-907)
